Patent EP0980526B1, “INHIBITORS OF NUCLEAR PROTEIN/NUCLEAR RECEPTOR INTERACTION” (IMPERIAL CANCER RESEARCH TECHNOLOGY LIMITED, priority 1997, dated 1998)
These are yes or no findings as the source states them, for the method shown. In cells and extracts the contact can be indirect. Some entries that bind do so weakly or less than the wild type.

Chains of the proteins cited; added tags and fusions are not shown. Residues count along the entry.
UniProt P19785, residues 313-599: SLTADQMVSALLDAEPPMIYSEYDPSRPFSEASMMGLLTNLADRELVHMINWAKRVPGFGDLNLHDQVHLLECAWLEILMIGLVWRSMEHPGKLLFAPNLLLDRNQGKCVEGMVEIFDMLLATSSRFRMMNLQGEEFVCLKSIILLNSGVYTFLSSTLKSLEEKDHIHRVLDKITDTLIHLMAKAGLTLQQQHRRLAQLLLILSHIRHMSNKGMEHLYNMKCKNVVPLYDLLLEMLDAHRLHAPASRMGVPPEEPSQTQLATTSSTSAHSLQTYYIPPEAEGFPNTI
UniProt Q15788: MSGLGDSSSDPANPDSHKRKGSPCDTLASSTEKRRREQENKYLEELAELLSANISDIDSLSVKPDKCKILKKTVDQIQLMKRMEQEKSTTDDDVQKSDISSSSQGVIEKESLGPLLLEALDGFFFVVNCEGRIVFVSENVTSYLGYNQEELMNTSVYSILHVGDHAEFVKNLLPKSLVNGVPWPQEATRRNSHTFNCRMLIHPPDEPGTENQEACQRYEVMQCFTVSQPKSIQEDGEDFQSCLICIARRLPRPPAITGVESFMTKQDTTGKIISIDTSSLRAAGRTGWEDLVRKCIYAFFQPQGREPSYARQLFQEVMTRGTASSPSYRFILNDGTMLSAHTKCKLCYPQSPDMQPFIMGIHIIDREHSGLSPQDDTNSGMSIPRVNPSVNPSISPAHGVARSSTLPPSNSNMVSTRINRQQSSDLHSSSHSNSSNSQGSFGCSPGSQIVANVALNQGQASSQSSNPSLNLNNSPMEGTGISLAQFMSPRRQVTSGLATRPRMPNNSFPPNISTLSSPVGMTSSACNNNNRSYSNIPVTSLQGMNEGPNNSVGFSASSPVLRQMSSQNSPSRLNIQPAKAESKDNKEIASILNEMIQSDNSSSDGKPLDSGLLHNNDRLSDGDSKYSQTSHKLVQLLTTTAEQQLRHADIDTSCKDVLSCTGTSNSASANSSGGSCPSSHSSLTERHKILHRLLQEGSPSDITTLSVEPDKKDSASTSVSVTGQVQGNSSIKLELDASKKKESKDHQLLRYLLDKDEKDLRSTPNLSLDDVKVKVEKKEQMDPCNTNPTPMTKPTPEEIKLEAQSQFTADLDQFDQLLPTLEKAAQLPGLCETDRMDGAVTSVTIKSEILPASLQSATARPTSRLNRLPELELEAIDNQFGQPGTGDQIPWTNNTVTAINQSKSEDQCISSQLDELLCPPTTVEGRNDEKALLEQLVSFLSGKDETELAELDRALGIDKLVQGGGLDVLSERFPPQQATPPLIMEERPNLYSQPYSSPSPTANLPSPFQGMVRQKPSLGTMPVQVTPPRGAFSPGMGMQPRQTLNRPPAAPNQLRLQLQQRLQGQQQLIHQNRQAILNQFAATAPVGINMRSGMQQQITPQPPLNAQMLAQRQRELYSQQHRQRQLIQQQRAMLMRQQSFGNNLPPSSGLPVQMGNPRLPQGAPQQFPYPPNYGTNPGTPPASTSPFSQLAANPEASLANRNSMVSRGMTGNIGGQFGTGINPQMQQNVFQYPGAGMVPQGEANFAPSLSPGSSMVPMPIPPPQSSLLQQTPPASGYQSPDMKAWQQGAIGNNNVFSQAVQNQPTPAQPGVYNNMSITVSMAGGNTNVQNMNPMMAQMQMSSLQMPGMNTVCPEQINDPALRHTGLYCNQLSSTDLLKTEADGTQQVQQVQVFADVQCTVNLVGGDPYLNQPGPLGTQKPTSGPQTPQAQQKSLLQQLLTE

Biological target: GST-AF2 (ligand binding domain of the mouse estrogen receptor fused to glutathione-S-transferase) (mouse) (UniProt P19785)
Experiment: GST pulldown of [35S]-labelled in vitro translated protein, +/- 10^-6 M E2

wild type SRC1a (human, in vitro translated) (from UniProt Q15788 1-1441)
binding: binds
